# Test results: PubChem BioAssay AID662 (National Center for Advancing Translational Sciences (NCATS), 2007)
# The other results are listed elsewhere or left out. Shown are side measurements of this screen, not its main read-out; they come without a call. The list favours compounds with an active or inconclusive main result. The note in brackets gives the kind of curve behind each potency; many fits are weak.
# Assay: Cell signaling CRE-BLA (Fsk stim)
# Conditions: CHO CRE-bla reporter (cAMP response element driving beta-lactamase), forskolin EC10, beta-lactamase ratio; measured here: 460 nm blue channel
# Procedure, shortened: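 AC50 values, positive or negative, reflect shifts in EC10 NKH 477-induced CRE-bla reporter activity in CHO cells. Incubation lasted 3 h at 37 °C before CCF4 substrate (2 h, room temperature) and ratiometric 460/530 nm reading.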
row,SMILES,AC50
1,O=C(COc1ncnc2ccccc12)N1CCN(S(=O)(=O)c2ccc(Cl)cc2)CC1,"5.01 µM [falling, single point]"
2,CN(C)c1ncc2nc(-c3cccs3)c(=O)n(CCC#N)c2n1,"15.8 µM [rising, partial curve]"
3,Cc1noc(C)c1-c1ccc2ncnc(N3CCOCC3)c2c1,"10 µM [rising, single point]"
4,COCc1cc(=O)n2c([nH]c3ccccc32)c1C#N,"7.94 µM [rising, partial curve]"
5,Cc1nc2scc(-c3cccs3)c2c(=O)o1,"5.01 µM [falling, partial curve]"
6,C=CCn1c(C)cc(C(=O)CSc2nnc(-c3cccc(S(=O)(=O)N(CC)CC)c3)o2)c1C,"3.16 µM [rising, single point]"
7,O=C(CSCc1c(F)cccc1Cl)NCc1ccco1,"5.01 µM [falling, single point]"
8,N#Cc1cccc(-c2nc3cnc(N4CCOCC4)nc3n(C[C@H]3CCCO3)c2=O)c1,"31.6 µM [rising, partial curve, poor fit]"
9,CCN(CCNC(=O)C1CCN(S(=O)(=O)c2cccc3cccnc23)CC1)c1ccccc1,"10 µM [falling, partial curve]"
10,COc1ccc(Oc2ncc3nc(C)c(=O)n(C4CC4)c3n2)cc1,"15.8 µM [rising, partial curve]"
11,CCOC(=O)N1CCC(NC(=O)C(C)n2c3ccccc3c3cnn(C)c(=O)c32)CC1 (configuration not stated),"25.1 µM [rising, single point]"
12,COc1nc(N(c2ccccc2)c2ccccc2)nc(-n2ccnc2)n1,"5.01 µM [rising, partial curve]"
13,CCOC(=O)N1CCN(c2c(F)cc3[nH]c(=S)[nH]c3c2Br)CC1,"15.8 µM [falling, single point]"
14,COc1ccccc1N1CCN(c2cc(=O)n(-c3ccc(Br)cc3)c(=O)[nH]2)CC1,"0.316 µM [falling, full curve]"
15,COCCN(C(=O)Cc1cccs1)c1nnc(-c2ccncc2)s1,"25.1 µM [falling, single point]"
16,Cc1cn2c(nc1=O)OC1C(O)C(COC(=O)c3ccccc3)OC12 (configuration not stated),"3.16 µM [falling, partial curve, poor fit]"
17,O=C(Nc1cccc(F)c1)N1CCCC2(CCN(C(=O)c3cc(C(F)(F)F)cc(C(F)(F)F)c3)CC2)C1,"20 µM [rising, single point]"
18,CCOc1nc(NCCc2ccc(OC)c(OC)c2)nc(NC(C)(C)CO)n1,"12.6 µM [rising, partial curve, poor fit]"
19,Cc1ccc(S(=O)(=O)N2CCN(C(=O)CSc3nnnn3C)C2)cc1,"25.1 µM [rising, single point]"
20,C=C(C)Cn1c(=O)c2c(nc3n2CCN3c2cccc(Cl)c2C)n(C)c1=O,"5.01 µM [falling, full curve, poor fit]"
21,CC1CCCCN1c1nnc(NC(=O)Cn2c(=O)oc3ccccc32)s1 (configuration not stated),"10 µM [rising, partial curve]"
22,O=C1NC(=O)c2c(NC(=O)C3CCCO3)cccc21 (configuration not stated),"10 µM [rising, single point]"
23,O=C(O)c1cncc(C(=O)O)c1,"2 µM [rising, single point]"

# By substructure, the compounds so far containing a thiophene ring, fused or not
row,SMILES,AC50
2,CN(C)c1ncc2nc(-c3cccs3)c(=O)n(CCC#N)c2n1,"15.8 µM [rising, partial curve]"
5,Cc1nc2scc(-c3cccs3)c2c(=O)o1,"5.01 µM [falling, partial curve]"
15,COCCN(C(=O)Cc1cccs1)c1nnc(-c2ccncc2)s1,"25.1 µM [falling, single point]"

# Carrying on:

row,SMILES,AC50
1,Cc1ccc(-c2nnc(SCC#N)n2N)cc1,"3.98 µM [falling, single point]"
2,CN(C)c1nc(N)nc(Cn2ccnc2)n1,"1.58 µM [rising, full curve]"
3,O=C(Nc1ccc(Cl)cc1)Nc1ccc2c(c1)N1CCN=C1S2,"5.01 µM [falling, single point]"
4,O=C(NC(Cc1ccc2c(c1)OCO2)C(=O)N1CCCC1C(=O)O)c1ccccc1 (configuration not stated),"0.398 µM [rising, full curve]"
5,COc1ccc(-n2nc(C(=O)NCC(=O)NCc3ccco3)c3ccccc3c2=O)cc1,"0.0794 µM [falling, partial curve, poor fit]"
6,CCOc1ccc(CCNC(=O)Cc2nn[nH]n2)cc1OCC,"0.398 µM [falling, full curve]"
7,CC(n1cnnn1)C12CC3CC(CC(C3)C1)C2 (configuration not stated),"12.6 µM [rising, partial curve]"
8,Cc1cccc(N2CSC3=C(C#N)C(c4ccc(C)o4)CC(=O)N3C2)c1 (configuration not stated),"1 µM [falling, full curve]"
9,CCOC(=O)c1oc2nc(C(C)C)c3c(c2c1N)CCC3,"12.6 µM [falling, partial curve]"
10,COc1ccc(C(=O)CN2C(=O)C(C)(C)Oc3ccc(C(=O)N4CCCCCC4)cc32)cc1,"1 µM [falling, partial curve]"
11,CCC(Sc1nc(N)c(NC(=O)c2ccc(OC)c(OC)c2)c(=O)[nH]1)C(=O)OC (configuration not stated),"12.6 µM [rising, partial curve]"
12,CN(C)C(=O)c1ccc(-c2nccc(Nc3ccc(F)cc3)n2)cc1,"3.98 µM [rising, full curve, poor fit]"
13,Cc1nc(SCC(=O)NCc2ccco2)nc(C)c1C,"7.94 µM [falling, partial curve, poor fit]"
14,Cc1nn2c(-c3ccccc3)nnc2c2ccccc12,"10 µM [rising, partial curve]"
15,Cc1cc(C)cc(N(CC(=O)NCC2CCCO2)C(=O)CN2C(=O)COc3ccccc32)c1 (configuration not stated),"0.794 µM [rising, partial curve, poor fit]"
16,CCN(CC)C(=O)C1CCCN(Cc2ccccc2F)C1 (configuration not stated),"0.00316 µM [falling, full curve]"
17,CCOc1ccccc1NC(=O)Cn1cnc2c(cnn2-c2ccc(C)c(C)c2)c1=O,"0.398 µM [rising, full curve]"
18,O=C(NC1CCCCC1)c1ccc2c(=O)n(CC3CCCO3)c(=O)[nH]c2c1 (configuration not stated),"0.631 µM [rising, full curve]"
19,COC(=O)c1sc(=S)n(-c2cc(F)ccc2F)c1N,"10 µM [rising, partial curve, poor fit]"
20,COc1ccc(OC)c(NC(=O)Cn2cc(C(=O)c3ccco3)c3ccccc32)c1,"0.00316 µM [falling, full curve, poor fit]"
21,CN1C(=O)c2cccc(N(C)C)c2C1=O,"12.6 µM [rising, partial curve]"
22,COc1cc(C2C3=C(Nc4ncnn42)c2ccccc2CC3)cc(OC)c1OC (configuration not stated),"0.398 µM [rising, full curve]"
23,CCOC(=O)c1ccc(Oc2nc(OC)nc(N(C)C)n2)cc1,"10 µM [rising, single point]"

row,SMILES,AC50
1,CCOC(=O)c1c(C)n(C)c2ccc(OCC(O)Cn3nc(C)cc3C)cc12 (configuration not stated),"10 µM [rising, partial curve]"
2,Cc1cccc(-c2nnc3n2N=C(c2ccccc2Br)CS3)c1,"0.00794 µM [rising, full curve, poor fit]"
3,Cc1ccc2c(CSc3nnc(C4CC4)n3N)cc(=O)oc2c1,"0.0501 µM [falling, full curve, poor fit]"
4,CCC(Sc1nc2cc3c(cc2c(=O)n1Cc1ccco1)OCO3)C(=O)Nc1cccc(OC)c1 (configuration not stated),"1.26 µM [rising, partial curve]"
5,C=CCSc1nc2ccccc2[nH]1,"2.51 µM [rising, single point]"
6,CCN(CC)S(=O)(=O)c1ccc(F)c(C(=O)NCCC(C)C)c1,"10 µM [rising, single point]"
7,Cc1ccccc1Cn1cc(NC(=O)c2cc3nc(-c4ccco4)cc(C(F)(F)F)n3n2)cn1,"15.8 µM [rising, single point]"
8,CCN(CC)CCCNC(=O)c1cc2c(=O)n(C)c3ccccc3c2n1C,"10 µM [rising, partial curve]"
9,CCOc1ccc(N(CC(=O)Nc2ccccc2C)S(=O)(=O)c2c(C)noc2C)cc1,"3.98 µM [rising, full curve]"
10,CC1CC(C)CN(c2oc(-c3ccccc3Cl)nc2C#N)C1 (configuration not stated),"10 µM [rising, partial curve]"
11,CN(Cc1cccs1)S(=O)(=O)c1cccs1,"0.126 µM [falling, single point]"
12,CCOC(=O)CCCCC(=O)c1[nH]c(=O)[nH]c1CSc1nc(C)cc(C)n1,"5.01 µM [falling, partial curve, poor fit]"
13,Cc1cccc(NC(=O)Nc2ccc(C#N)cc2)n1,"2.51 µM [falling, full curve]"
14,COC(=O)C1=CO[C@@H](C)[C@H]2CN3CCc4c([nH]c5ccccc45)[C@@H]3C[C@H]12,"12.6 µM [falling, single point]"
15,CS(=O)(=O)N(CC(=O)N1CCCC1)c1ccc(Cl)c(Cl)c1,"0.631 µM [falling, full curve]"
16,COc1cc(C2C3CN(C)CC=C3C(C#N)=C(N)C2(C#N)C#N)ccc1OC(C)C (configuration not stated),"10 µM [rising, partial curve]"
17,CC(C)CC1C(C#N)=C(N)SC(N)=C1C#N,"0.0398 µM [falling, full curve, poor fit]"
18,COc1cccc(C(=O)OCCN2C(=O)c3ccccc3C2=O)c1OC,"25.1 µM [rising, single point]"
19,COc1ccc(C(=O)n2nc(-c3ccc(Cl)cc3)nc2N)cc1OC,"2 µM [rising, partial curve]"
20,Cc1ccc(N(C(=O)Cn2nnc3ccccc32)C(C(=O)NCc2ccco2)c2cccnc2)cc1 (configuration not stated),"31.6 µM [falling, single point]"
21,COc1ccccc1C(=O)N1CCN(c2nc3cc(C)c(C)cc3cc2C#N)CC1,"15.8 µM [rising, partial curve]"

# 3 successive compounds from above, for reference:
row,SMILES,AC50
10,CC1CC(C)CN(c2oc(-c3ccccc3Cl)nc2C#N)C1 (configuration not stated),"10 µM [rising, partial curve]"
11,CN(Cc1cccs1)S(=O)(=O)c1cccs1,"0.126 µM [falling, single point]"
12,CCOC(=O)CCCCC(=O)c1[nH]c(=O)[nH]c1CSc1nc(C)cc(C)n1,"5.01 µM [falling, partial curve, poor fit]"
